We go through two molecules from paper PMC6140714.

Chains of the proteins cited; added tags and fusions are not shown.
UniProt O14965: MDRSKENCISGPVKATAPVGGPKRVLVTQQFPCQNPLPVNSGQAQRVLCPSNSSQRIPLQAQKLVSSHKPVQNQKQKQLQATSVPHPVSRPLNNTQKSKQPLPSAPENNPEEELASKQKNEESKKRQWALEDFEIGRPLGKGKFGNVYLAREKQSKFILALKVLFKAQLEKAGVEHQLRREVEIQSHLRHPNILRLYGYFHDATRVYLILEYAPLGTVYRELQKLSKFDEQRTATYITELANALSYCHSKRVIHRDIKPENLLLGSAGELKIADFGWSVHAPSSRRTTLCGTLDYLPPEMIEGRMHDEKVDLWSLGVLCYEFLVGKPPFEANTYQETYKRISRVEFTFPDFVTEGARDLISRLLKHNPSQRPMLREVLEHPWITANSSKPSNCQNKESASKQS
UniProt O00429: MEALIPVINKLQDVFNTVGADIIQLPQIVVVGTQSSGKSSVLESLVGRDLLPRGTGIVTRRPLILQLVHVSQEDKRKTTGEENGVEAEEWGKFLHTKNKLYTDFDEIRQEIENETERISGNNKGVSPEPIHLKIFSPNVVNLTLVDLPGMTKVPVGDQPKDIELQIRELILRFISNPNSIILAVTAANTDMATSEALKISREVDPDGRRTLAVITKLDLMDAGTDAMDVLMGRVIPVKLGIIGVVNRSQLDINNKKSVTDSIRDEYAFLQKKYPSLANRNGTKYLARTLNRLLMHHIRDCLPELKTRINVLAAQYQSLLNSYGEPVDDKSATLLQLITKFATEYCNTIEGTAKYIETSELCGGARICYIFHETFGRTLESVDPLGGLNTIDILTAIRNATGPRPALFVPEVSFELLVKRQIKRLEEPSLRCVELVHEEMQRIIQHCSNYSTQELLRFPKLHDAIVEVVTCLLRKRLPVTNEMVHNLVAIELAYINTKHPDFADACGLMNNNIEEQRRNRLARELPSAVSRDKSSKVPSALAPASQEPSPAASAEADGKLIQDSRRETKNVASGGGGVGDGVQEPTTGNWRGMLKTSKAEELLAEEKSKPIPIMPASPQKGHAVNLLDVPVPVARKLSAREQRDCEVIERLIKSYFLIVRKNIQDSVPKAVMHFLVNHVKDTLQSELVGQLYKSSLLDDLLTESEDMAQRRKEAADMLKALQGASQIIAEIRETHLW

These are yes or no findings as the source states them, for the method shown. Binding seen in cells or lysates may run through a third protein. These calls come from enrichment with a bait or labelling near it, and not all partners need be listed.

In this assay the target is AURKA-GFP (affinity-purified) (human) (UniProt O14965). The assay is described as follows: affinity purification with mass spectrometry; AURKA-GFP isolated by affinity-purification from whole cell extracts or mitochondrial fractions of HEK293 cells; nanoLC-ESI MS/MS; hits filtered against CRAPome.

Regarding DNM1L (from UniProt O00429 1-736), the binding entry is “binds”.

B1: MFF (protein, UniProt Q9GZY8 1-342)
chain: MSKGTSSDTSLGRVSRAAFPSPTAAEMAEISRIQYEMEYTEGISQRMRVPEKLKVAPPNADLEQGFQEGVPNASVIMQVPERIVVAGNNEDVSFSRPADLDLIQSTPFKPLALKTPPRVLTLSERPLDFLDLERPPTTPQNEEIRAVGRLKRERSMSENAVRQNGQLVRNDSLWHRSDSAPRNKISRFQAPISAPEYTVTPSPQQARVCPPHMLPEDGANLSSARGILSLIQSSTRRAYQQILDVLDENRRPVLRGGSAAATSNPHHDNVRYGISNIDTTIEGTSDDLTVVDAASLRRQIIKLNRRLQLLEEENKERAKREMVMYSITVAFWLLNSWLWFRR
For B1, the binding result is given as “binds”.
